The list shows a part of the results. Repeats are few or missing, and single values can be far off.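 Cells were imaged in 1,536-well plates, and nuclei stained with an antibody against cleaved PARP were counted against all DNA-stained nuclei to give the apoptosis fraction. Screening doses were chosen to leave most cells alive, and resting and induced cleaved-PARP levels differ strongly between cell lines.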
Columns and labels:
Assay in all cases: cleaved PARP positive nuclei fraction relative to DMSO control; melanoma cells; higher = more apoptosis
Details in all cases: library dose: low library concentration; 72 h
501Mel = test system: 501Mel
A101D = test system: A101D
A2058 = test system: A2058
A375 = test system: A375
C32 = test system: C32
CBRC008 = test system: CBRC008 (line from a melanoma biopsy)
CBRC014 = test system: CBRC014 (line from a melanoma biopsy)
CBRC016 = test system: CBRC016 (line from a melanoma biopsy)
CBRC017 = test system: CBRC017 (line from a melanoma biopsy)

SMILES	cleaved PARP positive nuclei fraction (501Mel) [%]	cleaved PARP positive nuclei fraction (A101D) [%]	cleaved PARP positive nuclei fraction (A2058) [%]	cleaved PARP positive nuclei fraction (A375) [%]	cleaved PARP positive nuclei fraction (C32) [%]	cleaved PARP positive nuclei fraction (CBRC008) [%]	cleaved PARP positive nuclei fraction (CBRC014) [%]	cleaved PARP positive nuclei fraction (CBRC016) [%]	cleaved PARP positive nuclei fraction (CBRC017) [%]
O=c1[nH]nc(Sc2ncc([N+](=O)[O-])s2)n1-c1ccc2c(c1)OCCO2 + O=C(/C=C/c1cccnc1)NCCCCC1CCN(C(=O)c2ccccc2)CC1 [FK866] (first compound 0.2 µM, partner dose 0.01 µM)	96.6	111	112	138	76.3	2410	109	302	213
O=C(/C=C/c1cccnc1)NCCCCC1CCN(C(=O)c2ccccc2)CC1 + CN(c1ncccc1CNc1nc(Nc2ccc3c(c2)CC(=O)N3)ncc1C(F)(F)F)S(C)(=O)=O [PF562271] (first compound 0.01 µM, partner dose 0.08 µM)	160	200	87.1	161	78.6	3390	120	1010	1110
Cc1ccc(Nc2nccc(N(C)c3ccc4c(C)n(C)nc4c3)n2)cc1S(N)(=O)=O [Pazopanib] + Nc1nc(F)nc2c1ncn2[C@@H]1O[C@H](CO)[C@@H](O)[C@@H]1O [fludarabine] (first compound 0.4 µM, partner dose 0.2 µM)	24000	162	82.5	2400	39.2	36.6	133	150	90.5
COc1cc([C@@H]2c3cc4c(cc3[C@@H](O[C@@H]3O[C@@H]5CO[C@@H](C)O[C@H]5[C@H](O)[C@H]3O)[C@H]3COC(=O)[C@H]23)OCO4)cc(OC)c1O [etoposide] + O=C(O)c1ccc2c(c1)nc(Nc1cccc(Cl)c1)c1ccncc12 [CX4945] (first compound 0.02 µM, partner dose 0.4 µM)	59.2	81.1	91.6	154	149	86.7	106	160	223
Cc1cc(Nc2cc(N3CCN(C)CC3)nc(Sc3ccc(NC(=O)C4CC4)cc3)n2)n[nH]1 [Tozasertib] + Clc1ccc(Nc2nnc(Cc3ccncc3)c3ccccc23)cc1 [vatalanib] (first compound 0.006 µM, partner dose 2 µM)	47.6	129	91.7	93.6	91.7	85.9	138	152	100
